No constants are given. Whether binding was seen depends on the method and setting. Some binding calls cover weakened binding; strength is not graded here. Values belong to the molecule of their own block, whether it stands above or below them.
How the values were obtained:
[1] = biological target: T1, ICA512 RESP18HD (regulated endocrine-specific protein 18 homology domain of ICA512, residues 35-131) (human) (UniProt Q16849); test: co-sedimentation
T1 sequence: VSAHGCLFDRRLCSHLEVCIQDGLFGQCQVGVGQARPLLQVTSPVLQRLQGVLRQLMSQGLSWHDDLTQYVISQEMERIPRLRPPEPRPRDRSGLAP

Amino acid sequences for entries named in this document (tags omitted). Residues count along the entry.
UniProt P61823, residues 27-150: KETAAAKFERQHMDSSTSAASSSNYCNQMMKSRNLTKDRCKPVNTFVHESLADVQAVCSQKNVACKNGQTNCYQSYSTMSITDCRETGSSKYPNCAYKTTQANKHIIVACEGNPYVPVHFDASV
UniProt P10997, residues 34-70: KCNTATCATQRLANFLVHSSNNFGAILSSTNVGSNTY

[2] = biological target: T1, ICA512 RESP18HD (regulated endocrine-specific protein 18 homology domain of ICA512, residues 35-131) (human); test: light scattering
[3] = biological target: T1, ICA512 RESP18HD (regulated endocrine-specific protein 18 homology domain of ICA512, residues 35-131) (human); test: light scattering; remark: listed apart in the source
[4] = biological target: T1, ICA512 RESP18HD (regulated endocrine-specific protein 18 homology domain of ICA512, residues 35-131) (human); test: light scattering; remark: listed apart in the source
[5] = biological target: T1, ICA512 RESP18HD (regulated endocrine-specific protein 18 homology domain of ICA512, residues 35-131) (human); test: light scattering; remark: listed apart in the source

binding [1]: no binding (tested: 8 uM)
Molecule: RNase A (from UniProt P61823 27-150) (enzyme)

binding [2]: no binding (tested: 8 uM amylin)
Molecule: Amylin (from UniProt P10997 34-70) (peptide)

binding [3]: no binding (condition: pH 6.8)
binding [4]: binds weakly
binding [5]: no binding (condition: pH 4.5)
B1: ICA512 RESP18HD (regulated endocrine-specific protein 18 homology domain of ICA512, residues 35-131) (domain or fragment, human, UniProt Q16849 35-131, looked up)
chain: VSAHGCLFDRRLCSHLEVCIQDGLFGQCQVGVGQARPLLQVTSPVLQRLQGVLRQLMSQGLSWHDDLTQYVISQEMERIPRLRPPEPRPRDRSGLAP
